Measured values from PubChem BioAssay AID540256 (National Center for Advancing Translational Sciences (NCATS), 2011).
Several values for one entry are separate records, joined by “and”; a condition that tells them apart may be missing. Equal entries are not always repeated. Among all 300,000 compounds or so, about 3,700 (1.2%) were called active. This list was built around the results that the source calls inconclusive (neither active nor inactive); the mix of calls is not that of the screen. The call rests on the fitted dose curve; tested in HEK293 cells. Potencies of inconclusive entries are doubtful fits and often do not repeat.

assay: qHTS for Inhibitors of binding or entry into cells for Lassa Virus; conditions: Lassa virus pseudotype entry inhibition, cell reporter; activity change, negative = inhibition: at 37.9 µM (top of the series) unless noted; further: nearly all actives have a fitted effect of over 50% in size
On the % scale 0 is the no-effect control and ±100 the full control effect; potency means the concentration at half of the fitted maximal effect.

| SMILES | Potency | activity change, negative = inhibition |
| --- | --- | --- |
| CCCC(=O)Nc1ccc2c(c1)nc(CN1CCN(C(=O)OCC)CC1)n2C(C)C | inactive | – |
| COc1cc(/C=C(\C#N)c2ccccn2)ccc1OCc1ccccc1Cl | inconclusive: 25.1 µM [inhibitor, single point] | – |
| CCOc1ccc(CNC(=O)c2ccc(Sc3ccc(Cl)cc3)c(NC(C)=O)c2)cc1 | inactive and inconclusive: 25.1 µM [inhibitor, single point] | – |
| COc1ccc2c(CN3CCCCCCC3)cc(=O)oc2c1 | inconclusive: 0.199 µM [activator, full curve] | – |
| CCOC(=O)c1cc2c(=O)n3ccccc3nc2n(CC2CCCO2)c1=NC(=O)c1ccc(C(C)(C)C)cc1 (stereo not given) | inconclusive: 31.6 µM [activator, single point] | – |
| COc1ccc(CNC(=O)C(c2ccc(C)o2)N(Cc2cccs2)C(=O)Cc2cccs2)cc1 (stereo not given) | active: 11.2 µM | – |
| OC(Cn1c2ccccc2c2ccccc21)C[n+]1ccccc1 (stereo not given) | inconclusive: 0.259 µM [inhibitor, single point] | – |
| O=C1CCCc2c1cc(-c1ccccc1)n2-c1ccc(O)cc1 | inconclusive: 35.5 µM [inhibitor, single point] | – |
| N#CC1=C(N)Oc2c(c(=O)oc3ccccc23)C1c1ccccc1OC(=O)c1cccs1 (stereo not given) | inconclusive: 0.164 µM [inhibitor, full curve] | – |
| CCN(CC)c1nn2c(=O)c(C(=O)NCCc3ccc(C)cc3)cnc2s1 | inconclusive: 12.6 µM [inhibitor, single point] | – |
| CC(=O)Oc1ccc(-c2cccc(C(=O)NCC(=O)O)c2)cc1 | inconclusive: 0.092 µM [inhibitor, full curve, poor fit] | – |
| CCOC(=O)c1c(NC(=O)COc2cccc(C(F)(F)F)c2)sc2c1CCC(C)C2 (stereo not given) | inactive | – |
| CC(C)(C)c1ccc(OCc2ccc(C(=O)N/N=C/c3ccc(O)c(O)c3)cc2)cc1 | inconclusive: 35.5 µM [inhibitor, single point] | – |
| CCCCC1CCC(C(=O)N2CC(=O)Nc3ccc(F)cc3C2c2ccc(F)cc2)CC1 (stereo not given) | inconclusive: 11.2 µM [inhibitor, single point] | – |
| Nc1nnc(SCC(=O)c2ccc3ccccc3c2)s1 | inconclusive: 1.41 µM [activator, full curve, poor fit] | – |
| O=C(CN1CCCc2ccccc21)Nc1cccc(S(=O)(=O)N2CCOCC2)c1 | inactive | – |
| COc1ccc(C(=O)CNc2ccccc2C#N)cc1 | inactive | – |
| CCCN(CC1CC1)C(=O)COC(=O)c1ccc(CNS(=O)(=O)c2ccc(F)c(Cl)c2)cc1 | inconclusive: 3.55 µM [inhibitor, single point] | – |
| COc1ccc(OCCCC(=O)Nc2nccs2)cc1 | inactive | – |
| Nc1ccc2c(c1)oc1ccccc12 | inconclusive: 5.62 µM [activator, single point] | – |
| C(=N\n1cnnc1)/c1cccnc1 | inconclusive: 3.16 µM [activator, full curve, poor fit] | – |
| COc1ccc(Cl)cc1-n1c(C)cc(C(=O)OCC(=O)N2CC(=O)Nc3ccccc32)c1C | inconclusive: 9.2 µM [inhibitor, partial curve, poor fit] | – |

Single records, from the list above. Order of values: Potency	activity change, negative = inhibition
CCOc1ccc(CNC(=O)c2ccc(Sc3ccc(Cl)cc3)c(NC(C)=O)c2)cc1 is listed with inactive and inconclusive: 25.1 µM [inhibitor, single point]	–
COc1ccc(C(=O)CNc2ccccc2C#N)cc1 is listed with inactive	–
COc1ccc(OCCCC(=O)Nc2nccs2)cc1 is listed with inactive	–

Following part.

| SMILES | Potency | activity change, negative = inhibition |
| --- | --- | --- |
| CCOC(=O)c1c(C)[nH]c(C)c1C(=O)COC(=O)c1ccc(Cl)c(S(=O)(=O)NCc2ccccc2)c1 | inactive | – |
| COc1ccc(OCc2ccc(-c3nc(C#N)c(N4CCN(C)CC4)o3)o2)cc1 | inconclusive: 8.91 µM [inhibitor, partial curve, poor fit] | – |
| CN1[C@@H](CC(=O)c2ccccc2)CCC[C@H]1C[C@H](O)c1ccccc1 | inconclusive: 3.26 µM [inhibitor, full curve, poor fit] | – |
| Cc1ccc(C(NC(=O)C2CCCCC2)c2c(O)ccc3ccccc23)cc1 (stereo not given) | inconclusive: 1.84 µM [inhibitor, full curve, poor fit] | – |
| COc1cccc(CN(C)C(=O)CCc2nnc(-c3ccsc3)o2)c1 | inconclusive: 22.4 µM [activator, single point] | – |
| CCOc1ncccc1C(=O)OCc1ccc(C(=O)OC)cc1 | inactive | – |
| CCOc1ccc(CCNC(=O)c2ccc(-c3nc(CSc4ccc(C)cc4)c(C)o3)cc2)cc1 | inconclusive: 2.24 µM [inhibitor, partial curve, poor fit] | – |
| COc1ccc(NC2=Nc3ccccc3CC2)cc1 | inconclusive: 5.17 µM [activator, partial curve, poor fit] | – |
| Cc1sc2ncnc(NCC(C)(C)N3CCOCC3)c2c1C | inconclusive: 8.91 µM [inhibitor, partial curve, poor fit] | – |
| CCCCn1c(SCc2cccc([N+](=O)[O-])c2)nc2ccsc2c1=O | inconclusive: 0.231 µM [inhibitor, full curve, poor fit] | – |
| CCCOc1ccc(NC(=O)CC2C(=O)N(c3ccc(C)cc3)C(=O)N2C(C)C)cc1 (stereo not given) | inconclusive: 3.55 µM [inhibitor, full curve] | – |
| Cc1cccc(Nc2ncc(-c3ccccc3)o2)c1 | inconclusive: 25 µM [inhibitor, single point] | – |
| CC(C)CCNC(=O)CN1C(=O)CCn2nc(-c3cn(C)c4ccccc34)cc21 | inactive | – |
| Cc1ccc(N(CC(=O)NC(C)(C)C)C(=O)CNC(=O)c2cccs2)c(C)c1 | inactive | – |
| CC(C)OC(=O)CSc1nc2cc3c(cc2cc1C#N)OCO3 | inconclusive: 3.66 µM [activator, partial curve, poor fit] | – |
| COc1ccc(C(=O)/C=C/C(=O)N(Cc2ccc(F)cc2)C(C(=O)NC2CCCCC2)c2ccncc2)c(O)c1 (stereo not given) | inconclusive: 12.6 µM [inhibitor, partial curve] | – |
| COc1ccc(NC(=O)C2CCCO2)c(OC)c1 (stereo not given) | inactive | – |
| Cc1c(C(=O)O)sc2nc3n(c(=O)c12)CCCCC3 | – | inconclusive: 33.3% [activator] |
| O=C(Nc1ccc(Cl)c(S(=O)(=O)N2CCOCC2)c1)c1cc2ccccc2oc1=O | inactive | – |
| O=C(Nc1cccc(C(=O)OCc2cc(=O)n3c4c(sc3n2)CCCC4)c1)c1cccc(F)c1 | inconclusive: 3.55 µM [inhibitor, partial curve, poor fit] | – |
| CCC(C)NC(=O)CCSc1nc(-c2ccc3c(c2)OCO3)cc(C(F)(F)F)n1 (stereo not given) | inactive | – |
| Nc1ccc(-c2nc3ccc([N+](=O)[O-])cc3[nH]2)cc1 | inconclusive: 0.316 µM [activator, partial curve, poor fit] | – |

| SMILES | Potency | activity change, negative = inhibition |
| --- | --- | --- |
| O=C(COc1ccccc1Br)N1CCN(c2ccccc2)CC1 | inactive | – |
| c1ccc(CNc2ncnc3ccccc23)cc1 | inconclusive: 2.91 µM [inhibitor, full curve, poor fit] | – |
| Cn1ccnc1C(=O)c1ccc(N)cc1 | inactive | – |
| N=c1n(Cc2ccccc2)c2ccccc2n1CC(O)COc1ccccc1 (stereo not given) | inconclusive: 29.1 µM [inhibitor, single point] | – |
| O=C(OCCNC(=O)c1ccc2ccccc2n1)c1ccc(F)cc1 | inconclusive: 29.1 µM [inhibitor, single point] | – |
| O=C(Nc1cccc(Cl)c1)N(Cc1nc2ccccc2c(=O)[nH]1)Cc1cccs1 | inactive | – |
| Cc1ccc2cc3cc(C(=O)NCCC(C)C)oc3nc2c1 | inconclusive: 3.55 µM [inhibitor, full curve] | – |
| NC(=O)C1CN(C(=O)c2nn(Cc3ccccc3)c(=O)c3ccccc23)c2ccccc2O1 (stereo not given) | inconclusive: 11.2 µM [inhibitor, single point] | – |
| CC(=O)N1c2ccc(S(=O)(=O)N3CCC(C(=O)N4CCCC(C)C4)CC3)cc2CC1C (stereo not given) | inconclusive: 7.94 µM [inhibitor, full curve, poor fit] | – |
| C/C=C/c1ccc(OCC(=O)OCc2csc(Nc3ccc(C)cc3)n2)c(OC)c1 | inconclusive: 5.17 µM [activator, full curve, poor fit] | – |
| CCN(CC)CCn1c(=N)n(CC(O)COc2cccc(C)c2)c2ccccc21 (stereo not given) | inconclusive: 22.4 µM [inhibitor, single point] | – |
| COc1cccc(C(=O)Nc2cccc(C(C)=O)c2)c1 | inconclusive: 22.4 µM [activator, single point] | – |
| COc1ccccc1CNC(=O)CCn1c(=O)c2ccccc2n(CC(=O)Nc2cc(Cl)ccc2C)c1=O | inactive | – |
| COc1cc2c(cc1OC)C(Nn1cnnc1)=NC1(CCCC1)C2 | inconclusive: 7.08 µM [inhibitor, partial curve, poor fit] | – |
| CCOC(=O)c1ccc(N2C(=O)c3[nH]nc(-c4ccc(OC)cc4)c3C2c2cccc(O)c2)cc1 (stereo not given) | inconclusive: 17.8 µM [inhibitor, partial curve, poor fit] | – |
| Cc1ccc(-c2noc(CCCC(=O)NCC3CCCO3)n2)cc1 (stereo not given) | inconclusive: 35.5 µM [inhibitor, single point] | – |
| Cc1cc(C(=O)CCl)c(C)n1CCc1ccc(F)cc1 | inconclusive: 17.8 µM [inhibitor, single point] | – |
| COc1ccc(-c2nnn(CC(=O)NC3CCCc4ccccc43)n2)cc1OC (stereo not given) | inconclusive: 29.1 µM [inhibitor, partial curve, poor fit] | – |
| COC(CNC(=O)C1CCN(C(=O)c2cc3oc(C)cc3n2Cc2c(F)cccc2Cl)CC1)OC | inconclusive: 22.4 µM [inhibitor, single point] | – |
| COc1cccc(Cn2c(C)c(CNCc3cccc(C)c3)c(C(=O)O)c2C)c1 | – | inconclusive: 11.2% [activator] [at 46.1 µM] |
| O=C1CC(c2ccco2)CC2=C1C=Nc1ccccc1N2 (stereo not given) | inconclusive: 18.3 µM [inhibitor, partial curve, poor fit] | – |
